# Assay results reported in the supplement of paper PMC3334620.
# Whole data set: some 33,000 sequences, median “E-score (-0.5 to 0.5)” near -0.0014, cut for the highest 2% near 0.25. This is one part of the list.
# Molecular target: T1, Cad1 (UniProt P24813)
# T1 sequence: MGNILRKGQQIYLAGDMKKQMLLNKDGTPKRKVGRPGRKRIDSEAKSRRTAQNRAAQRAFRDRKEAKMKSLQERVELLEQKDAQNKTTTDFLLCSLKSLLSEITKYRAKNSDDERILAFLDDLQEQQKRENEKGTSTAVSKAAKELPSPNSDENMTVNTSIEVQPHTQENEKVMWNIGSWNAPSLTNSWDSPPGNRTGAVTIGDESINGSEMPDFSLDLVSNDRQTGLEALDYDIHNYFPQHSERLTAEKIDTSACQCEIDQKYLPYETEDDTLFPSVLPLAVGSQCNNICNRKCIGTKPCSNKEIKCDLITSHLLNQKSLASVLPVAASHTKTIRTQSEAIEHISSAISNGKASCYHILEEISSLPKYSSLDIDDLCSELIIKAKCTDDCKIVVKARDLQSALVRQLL
# Assay: PBM E-score (8-mer binding enrichment) (E-score (-0.5 to 0.5)); higher = stronger / more preferred TF binding
# Settings: protein concentration: 100 nM; construct: GST-full length
# Method in brief: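 E-scores (a modified Wilcoxon-Mann-Whitney statistic) were assigned by the Universal PBM Analysis Suite to every ungapped eight-base word pooled with its reverse complement. The input came from universal all-10-mer Agilent arrays made double-stranded by primer extension and probed with GST-tagged yeast transcription factors at about 100-200 nM. Fluorescent anti-GST detected bound protein, and masliner normalised the scans.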
row,Sequence,PBM E-score
1,AAACAACT,0.0358
2,ATACTGTA,0.139
3,CATTTGCC,-0.196
4,GACGTCTA,-0.158
5,ACAACCGG,0.0195
6,TTCTGAAA,0.109
7,CACTTCAA,0.0461
8,AATGATAC,0.0611
9,CGAGTACC,0.0589
10,AGGCGCAC,0.0699
11,GAGTTAGA,-0.088
12,AATAAAAA,0.264
13,ACCATAGG,-0.176
14,CGAAGTCG,0.102
15,CGACGTCG,0.0849
16,GACAGAGA,-0.0116
17,GATTATCA,0.1
18,AGTTGGCG,-0.0108
19,GATGGTAA,0.00239
20,CATGGGAA,-0.0667
21,ATGTACGG,0.0346
22,CTTGTGGA,-0.104
23,AGGTAGCA,-0.261
24,AGCAATAT,0.231
25,AGAGTCAA,-0.133

# Four entries drawn at random from those above:
row,Sequence,PBM E-score
19,GATGGTAA,0.00239
2,ATACTGTA,0.139
5,ACAACCGG,0.0195
9,CGAGTACC,0.0589

# Later entries

row,Sequence,PBM E-score
1,GGTAATAA,0.177
2,CTAATTAC,0.199
3,ACATGCTA,0.0138
4,CGAAGCCG,-0.0751
5,CGCGTTTA,-0.0475
6,AAGGAGAC,-0.154
7,GCCAGTTA,-0.0182
8,GGCGGACA,-0.0158
9,ACTCCCCG,0.0906
10,AATTGCCG,0.0765
11,GGTGACCA,-0.164
12,AGTCGTAT,-0.135
13,CGACCCTA,-0.0777
14,CTTAAATA,-0.0548
15,CGGTACGA,-0.129
16,GGCTTGGA,-0.116
17,CCGATGCG,-0.148
18,GCGTATCC,0.0519
19,CAAGTGTG,-0.0845
20,AAGGGGCT,0.0431
21,CCCACGCG,-0.182
22,CGAACACG,0.125
23,GTGCTTGA,0.067
24,ACCCATTA,-0.0176
25,AACTGGCT,-0.2

# Rewritten with tabs: entries from further up.
row	Sequence	PBM E-score
6	TTCTGAAA	0.109
11	GAGTTAGA	-0.088
5	CGCGTTTA	-0.0475
7	GCCAGTTA	-0.0182
15	CGGTACGA	-0.129
18	GCGTATCC	0.0519

# Next part

row,Sequence,PBM E-score
1,AGGGCCCA,-0.0336
2,ACCCATCA,0.0594
3,CGAAGGCC,-0.103
4,AGAGCGGG,-0.199
5,GAGTTGAA,-0.0548
6,AATAAATC,-0.0137
7,CCTAATCC,-0.0248
8,AAAAGGCG,-0.0129
9,GATAAGGC,0.0254
10,AGTGAACT,0.0619
11,GTCCCCTA,-0.198
12,CTTCCCGC,-0.00381
13,CATACGAA,0.0909
14,ACTAAAGG,0.0101
15,ATTCACAA,0.228
16,CCCCTTCC,-0.227
17,CGCACGCG,-0.00598
18,GAATGGGC,-0.183
19,GGGGGCAC,-0.462
20,GATCTGGC,-0.0466
21,CAGAGCAC,-0.0601
22,ATCCGATG,0.229
23,ATCGGTGG,-0.17
24,ATGTAGCA,0.0316
25,TAAAGTCA,0.00267

row,Sequence,PBM E-score
1,TACCAGGA,0.144
2,AACCTCAG,0.0655
3,AAGCAAGG,-0.0354
4,GAGGATGC,-0.113
5,GATGCCCA,0.125
6,CAAAAGAC,-0.00184
7,TTAGTGAA,0.0369
8,ACTATATG,0.0931
9,AGAATCGG,0.0236
10,CAAGGCCC,-0.141
11,CGTACCTA,-0.101
12,CGCAAAAG,-0.137
13,TATTGCAA,0.19
14,CTAGAGAA,0.0268
15,CTTAGAGA,-0.128
16,GGAAGCAC,-0.00516
17,AGGGGAAT,0.131
18,CGACTCAC,-0.18
19,CATATCCC,0.0466
20,TAAATCCA,0.104
21,ATACGTGG,-0.0335
22,CGTAGAAG,-0.0667
23,GGTTTGAC,-0.0869
24,CTCCGCAG,0.00742
25,CTTCATTC,-0.149

row,Sequence,PBM E-score
1,ACTACGAC,-0.0666
2,ATATCTGG,0.106
3,CTGCCTTA,-0.111
4,ATCGGATA,0.276
5,CACATTGC,0.122
6,GCATATAA,0.0993
7,CTCGCTCA,0.138
8,CTGAGCTC,0.0939
9,CGGGGAGA,-0.233
10,CCCTAAAG,-0.278
11,CACCCTAC,-0.00308
12,CTGGCGCC,0.239
13,CGTGATCC,-0.132
14,ATATACTC,-0.0465
15,CACTATAA,-0.0386
16,AAGCCGGC,0.149
17,AGCGTATA,0.0997
18,GGAACCAC,-0.0252
19,CATCCAGG,-0.0256
20,CCAAGGTC,-0.00836
21,GCGGTCTA,0.0493
22,ACGCAGCT,0.119
23,AGCAATTG,0.218
24,CGCTGATC,0.111
25,GTGACCTA,-0.131

row,Sequence,PBM E-score
1,AAATCCGA,0.00337
2,CGTGGTAG,-0.139
3,AGCTCAGG,-0.0585
4,AGTTTTGG,0.127
5,CCTTGTAC,-0.144
6,CCCCATAC,-0.0882
7,CGCTTAAG,0.0156
8,ATCTGATC,0.115
9,AAACAGAC,0.0478
10,GGTGAATA,0.0814
11,ACGGACTA,0.0288
12,CCGTCGCC,0.0415
13,TAACCGAA,0.101
14,ATCAAAAT,0.139
15,GGTAGGAA,0.127
16,AACGTTCA,-0.209
17,CCAAGAAA,-0.0062
18,TGCACGCA,-0.0647
19,AATACTAA,0.253
20,AGGGCATC,-0.208
21,CATGCGTA,0.0468
22,CTTAGTGA,-0.021
23,AGACCATA,0.188
24,CGAGCCGA,0.0282
25,ATGACTCC,-0.0435

row,Sequence,PBM E-score
1,CTCGGGCA,0.0974
2,AAGGGCCG,-0.116
3,GGTACCCA,-0.101
4,CCGCTACA,0.0177
5,ATTACCAA,0.292
6,AACATGCC,-0.0649
7,GCAAGTCC,-0.0237
8,CCTGGAGA,0.014
9,GACATGGA,0.0336
10,CACTCGAG,0.0439
11,GATCGATC,0.0347
12,GATGTGAC,-0.0433
13,CCTCCTCC,-0.244
14,CGGTGGAC,-0.177
15,GCCAGCCA,-0.0217
16,ATGTACCA,-0.0238
17,CAACTACA,0.0903
18,CCCTGGGA,-0.299
19,GACTTGAA,0.0861
20,CCCTGAAG,-0.165
21,AGAAACCC,-0.0818
22,TAATGTAA,0.246
